The assay deals with BDF1 mice, C1498 leukemia ip, median survival T/C. The assay is described as follows: NCI In Vivo Anticancer Drug Screen. Data for tumor model C1498 Myeloid Leukemia (intraperitoneal) in B6D2F1 (BDF1) mice. Conditions: T/C endpoint: median survival time, schedule: Q01DX010 (ip), vehicle: saline, higher T/C = longer survival. The procedure:
The antitumor activity of compounds was measured in mice bearing transplantable tumors. Survival or tumor size were measured and the results are expressed as the measurement made in the treated group (T) divided by the measurement made in the vehicle treated control group (C). The tumor model used in this assay is C1498 Myeloid Leukemia (intraperitoneal) in B6D2F1 (BDF1) mice

Molecules are shown by their SMILES. The list does not hold the whole screen: it gathers some chemical classes. Not every dose and run of a compound is shown. T/C is the treated group as % of the vehicle group. For survival time, the PubChem record calls one and a half times the control and up active, and a quarter to a half above the control has no call in these data; cut-offs in other NCI protocols can differ. Some T/C values are marked as having no survivor count here; that says nothing about deaths at the dose. Schedules are NCI's codes, taken here to give the interval after Q, in days (D) or hours (H), and the number of doses after X. Some doses were run more than once; their values stand side by side, smallest first.

`CN(CCCl)CCCl`: the T/C was 145 [survivor count not shown] and 161 % of control [survivor count not shown] (dose: 0.13 mg/kg/injection); 95 [survivor count not shown] and 109 % of control [survivor count not shown] (dose: 0.25 mg/kg/injection); 95 [survivor count not shown] and 100 % of control [survivor count not shown] (dose: 0.5 mg/kg/injection); 95 [survivor count not shown] and 104 % of control [survivor count not shown] (dose: 1.0 mg/kg/injection).

For the origin of these results see PubChem BioAssay AID312 (DTP/NCI, 2004).
